PubChem BioAssay AID1224828, NIAID – 2016
The whole screen tested about 17,000 reagents; below is an unselected part. Over the whole deposit, 762 (4.5%) got an active call. 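Active calls include both raised and lowered p65 entry, mostly lowered; wells with fewer than 50 cells lack a z-score.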 Raw values vary from plate to plate and are shown uncorrected. The numbers tell different reagents against one gene apart.

Purpose: 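Knock-downs that increase or decrease LPS-induced p65 nuclear translocation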 (primary screen)
System: mouse RAW264.7 G9 macrophage reporter cells (GFP-p65, Tnf promoter-mCherry)
Knock-down reagent: siRNA pool against mouse genes, 100 nM
Timing: 2 days siRNA transfection, then 40 min LPS before fixation
Challenge: LPS (Salmonella minnesota R595) at 10 ng/ml
Read-out: 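Imaged p65 nuclear translocation ratio, normalised to the plate median, converted to robust z-scores and averaged across two replicates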
Direction: p65 translocation robust z-score: higher = more nuclear NF-kappaB p65 after LPS than the plate median; nuclear/cytoplasmic p65 ratio: higher = more nuclear NF-kappaB p65
Rule for the call: 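Active if robust z is above 3.3 (negative regulators) or below -1.56, the Tlr4 control median (positive regulators); activity score 50 or more; control wells not called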
Meaning of the calls: active = hit (p65 shift raised or lowered); inactive = no clear change

target gene	reagent	p65 translocation robust z-score	nuclear/cytoplasmic p65 ratio, rep 1	nuclear/cytoplasmic p65 ratio, rep 2	low cell count flag	outcome
Cnksr1 (connector enhancer of kinase suppressor of Ras 1)	1	-0.38	1.66	1.31	enough cells to score	inactive
Vmn1r70 (vomeronasal 1 receptor 70)	1	-0.57	1.45	1.49	enough cells to score	inactive
Txnl4b (thioredoxin-like 4B)	1	-1.17	1.4	1.38	enough cells to score	inactive
Cebpe (CCAAT/enhancer binding protein epsilon)	1	0.54	1.59	1.4	enough cells to score	inactive
Plekhj1 (pleckstrin homology domain containing J1)	1	-0.27	1.34	1.19	enough cells to score	inactive
Ech1 (enoyl coenzyme A hydratase 1, peroxisomal)	1	0.46	1.29	1.41	enough cells to score	inactive
Slc6a15	1	0.88	1.62	1.58	enough cells to score	inactive
Slc6a15	2	-0.69	1.37	1.18	enough cells to score	inactive
Zfp322a (zinc finger protein 322A)	1	0.32	1.41	1.33	enough cells to score	inactive
Spo11 (SPO11 initiator of meiotic double stranded breaks)	1	1.22	1.65	1.8	enough cells to score	inactive
Traf4 (TNF receptor associated factor 4)	1	1.47	1.69	1.73	enough cells to score	inactive
Sigirr	1	-0.03	1.57	1.71	enough cells to score	inactive
Fuca2 (fucosidase, alpha-L- 2, plasma)	1	0.19	1.55	1.73	enough cells to score	inactive
Sulf2 (sulfatase 2)	1	0.02	1.54	1.57	enough cells to score	inactive
Mapk8ip3 (mitogen-activated protein kinase 8 interacting protein 3)	1	-0.72	1.9	1.28	enough cells to score	inactive
Or8k30 (olfactory receptor family 8 subfamily K member 30)	1	-1.01	1.54	1.4	enough cells to score	inactive
Or51r1 (olfactory receptor family 51 subfamily R member 1)	1	-0.16	1.25	1.25	enough cells to score	inactive
Myo5a (myosin VA)	1	-0.64	1.35	1.27	enough cells to score	inactive
Spry4 (sprouty RTK signaling antagonist 4)	1		1.5	1.18	fewer than 50 cells per well; well left out of scoring	inactive
Pdik1l (PDLIM1 interacting kinase 1 like)	1		1.63	1.21	fewer than 50 cells per well; well left out of scoring	inactive
Itih3 (inter-alpha trypsin inhibitor, heavy chain 3)	1	-0.78	1.4	1.36	enough cells to score	inactive
Gc (vitamin D binding protein)	1	-0.36	1.28	1.43	enough cells to score	inactive
Ccnf (cyclin F)	1	0.28	1.57	1.35	enough cells to score	inactive
H1f4 (H1.4 linker histone, cluster member)	1	-1.35	1.49	1.3	enough cells to score	inactive
D830039M14Rik (RIKEN cDNA D830039M14 gene)	1	-0.04	1.56	1.55	enough cells to score	inactive
Dhdds (dehydrodolichyl diphosphate synthase)	1	2.16	2.17	1.58	enough cells to score	inactive
Cacna1g (calcium channel, voltage-dependent, T type, alpha 1G subunit)	1	1.05	1.83	1.71	enough cells to score	inactive
Rab36 (RAB36, member RAS oncogene family)	1	0.05	1.54	1.51	enough cells to score	inactive
Prss16 (serine protease 16 (thymus))	1	-1.38	1.32	1.21	enough cells to score	inactive
Myef2 (myelin basic protein expression factor 2, repressor)	1	-0.84	1.65	1.47	enough cells to score	inactive
Med23 (mediator complex subunit 23)	1	-1.49	1.32	1.15	enough cells to score	inactive
Adamtsl5 (ADAMTS-like 5)	1	-0.83	1.3	1.06	enough cells to score	inactive
Hacd1 (3-hydroxyacyl-CoA dehydratase 1)	1	-0.19	1.52	1.34	enough cells to score	inactive
Tex264 (testis expressed gene 264 ER-phagy receptor)	1	1.74	1.65	1.33	enough cells to score	inactive
Phlda1 (pleckstrin homology like domain, family A, member 1)	1		1.56	1.11	fewer than 50 cells per well; well left out of scoring	inactive
Kitl (kit ligand)	1	-0.4	1.42	1.33	enough cells to score	inactive
Bap1 (Brca1 associated protein 1)	1	-0.59	1.53	1.52	enough cells to score	inactive
Rpl28 (ribosomal protein L28)	1	-0.87	1.27	1.15	enough cells to score	inactive
Dhx34 (DExH-box helicase 34)	1	-0.01	1.53	1.58	enough cells to score	inactive
Gstt3 (glutathione S-transferase, theta 3)	1	0.81	1.86	1.57	enough cells to score	inactive
Ptprj (protein tyrosine phosphatase receptor type J)	1	-0.3	1.69	1.3	enough cells to score	inactive
Or7g29 (olfactory receptor family 7 subfamily G member 29)	1	0.18	1.47	1.29	enough cells to score	inactive
Serpinb2 (serine (or cysteine) peptidase inhibitor, clade B, member 2)	1	-1.16	1.37	1.4	enough cells to score	inactive
Slc22a12	1	0.6	1.66	1.55	enough cells to score	inactive
Zfp639 (zinc finger protein 639)	1		1.33	1.65	fewer than 50 cells per well; well left out of scoring	inactive
Cd5 (CD5 antigen)	1	-0.39	1.43	1.31	enough cells to score	inactive
Gpr63 (G protein-coupled receptor 63)	1	-0.76	1.43	1.48	enough cells to score	inactive
Dbnl (drebrin-like)	1	0.3	1.52	1.4	enough cells to score	inactive
Siral2 (SIR2 antiphage like 2)	1		1.18	1.12	fewer than 50 cells per well; well left out of scoring	inactive
Tbc1d24 (TBC1 domain family, member 24)	1	-1.24	1.28	1.33	enough cells to score	inactive
Naa60 (N(alpha)-acetyltransferase 60, NatF catalytic subunit)	1	-0.94	1.28	1.28	enough cells to score	inactive
Met (met proto-oncogene, receptor tyrosine kinase)	1	-0.33	1.61	1.35	enough cells to score	inactive
Prdx5 (peroxiredoxin 5)	1	0.36	1.42	1.26	enough cells to score	inactive
Eloa (elongin A)	1	0.49	1.61	1.57	enough cells to score	inactive
Hmx3 (H6 homeobox 3)	1	-0.68	1.6	1.39	enough cells to score	inactive
Haus4 (HAUS augmin-like complex, subunit 4)	1	-1.14	1.34	1.68	enough cells to score	inactive
Mov10l1 (Mov10 like RISC complex RNA helicase 1)	1	1.1	2.04	1.69	enough cells to score	inactive
Vmn1r214 (vomeronasal 1 receptor 214)	1		1.14	1.1	fewer than 50 cells per well; well left out of scoring	inactive
Crebzf (CREB/ATF bZIP transcription factor)	1	0.22	1.54	1.54	enough cells to score	inactive

In a second layout: 6 of the entries above.
| target gene | reagent | p65 translocation robust z-score | nuclear/cytoplasmic p65 ratio, rep 1 | nuclear/cytoplasmic p65 ratio, rep 2 | low cell count flag | outcome |
| --- | --- | --- | --- | --- | --- | --- |
| Hacd1 (3-hydroxyacyl-CoA dehydratase 1) | 1 | -0.19 | 1.52 | 1.34 | enough cells to score | inactive |
| Tex264 (testis expressed gene 264 ER-phagy receptor) | 1 | 1.74 | 1.65 | 1.33 | enough cells to score | inactive |
| Phlda1 (pleckstrin homology like domain, family A, member 1) | 1 | – | 1.56 | 1.11 | fewer than 50 cells per well; well left out of scoring | inactive |
| Kitl (kit ligand) | 1 | -0.4 | 1.42 | 1.33 | enough cells to score | inactive |
| Bap1 (Brca1 associated protein 1) | 1 | -0.59 | 1.53 | 1.52 | enough cells to score | inactive |
| Rpl28 (ribosomal protein L28) | 1 | -0.87 | 1.27 | 1.15 | enough cells to score | inactive |
